For some assays here: For at least one entry, the source does not settle the construct or the ends of the probe.

We go through one sequence from paper PMC3247736.

The target in data set [1] is HSA (human serum albumin) (human) (UniProt P02768). Description: QCM. As to conditions: 500 mg/L HSA vs 100 ug/L IgE; 5'-biotin; 8.1 mM Na2HPO4, 1.1 mM KH2PO4, 1 mM MgCl2, 2.7 mM KCl, 138 mM NaCl, pH 7.4, 37 C; BSA-blocked avidin-coated gold crystal; commercial protein; label: biotin (5'), immobilized on avidin; single-stranded DNA.
The test system of data set [2] is lysozyme. Kind of data set: QCM. The following applies: 500 mg/L lysozyme vs 100 ug/L IgE; 5'-biotin; 8.1 mM Na2HPO4, 1.1 mM KH2PO4, 1 mM MgCl2, 2.7 mM KCl, 138 mM NaCl, pH 7.4, 37 C; BSA-blocked avidin-coated gold crystal; commercial protein; label: biotin (5'), immobilized on avidin; single-stranded DNA.

On to “GGGGCACGTTTATCCGTCCCTCCTAGTGGCGTGCCCC [D17.4 anti-IgE aptamer]”, for which the binding signal (% of IgE response) in data set [1] and in data set [2] was less than 5 each time.
